PubChem BioAssay AID504808 – Drosophila RNAi Screening Center | 2011

Purpose: 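Chromatin factors that keep E2F targets switched off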 (primary screen)
Cell system: Drosophila S2 cells
Reagents: long dsRNA against Drosophila genes
Measurement: 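Firefly luciferase driven by E2F sites, normalised to Renilla luciferase on the same minimal promoter, measured by plate reader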
Scale: E2F firefly: higher = more E2F reporter activity; Renilla normaliser: higher = more normaliser reporter signal
Rule for the call: 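Called active if the normalised E2F reporter went up by over 50%; the cutoff is arbitrary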
The screen tested about 21,000 reagents; shown is an unselected part of those that have a named target and a result. In the full data, 18 (0.084%) are marked active. 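Raw counts without plate normalisation, one of two replicates; the ratio scores behind the calls were not deposited.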 Reagents against one gene are numbered here. Names joined by + are all predicted targets of the reagent. The record does not give: the amount of reagent, the time to read-out.

| target | dsRNA no. | E2F firefly, rep 1 | Renilla normaliser, rep 1 | activity call |
| --- | --- | --- | --- | --- |
| Kr (Kruppel) | 1 | 99812 | 4045 | inactive |
| CG33109 | 1 | 1.11e5 | 5867 | inactive |
| CG4691 | 1 | 88934 | 4094 | inactive |
| RpL36 (Ribosomal protein L36) | 1 | 55978 | 5273 | inactive |
| CG42568 + DnaJ-60 | 1 | 1.11e5 | 4750 | inactive |
| CG42568 + DnaJ-60 | 2 | 76783 | 3474 | inactive |
| CG14154 | 1 | 1.17e5 | 4702 | inactive |
| CG13471 | 1 | 1.45e5 | 8157 | inactive |
| CG11696 | 1 | 8032 | 716 | inactive |
| CG31678 | 1 | 77700 | 3163 | inactive |
| CG31678 | 2 | 95771 | 3858 | inactive |
| ccb (central complex broad) | 1 | 1.37e5 | 5186 | inactive |
| Pig1 (Pre-intermoult gene 1) | 1 | 1.04e5 | 5830 | inactive |
| CG5934 | 1 | 1.13e5 | 6809 | inactive |
| CG30010 | 1 | 1.43e5 | 6245 | inactive |
| CG42241 (retired record) | 1 | 1.39e5 | 6065 | inactive |
| CG13679 | 1 | 89480 | 3567 | inactive |
| Trissin | 1 | 1.29e5 | 6899 | inactive |
| Slc45-1 | 1 | 79072 | 3730 | inactive |
| CG7202 | 1 | 1.39e5 | 6298 | inactive |
| PIP4K (Phosphatidylinositol 5-phosphate 4-kinase) | 1 | 62388 | 4958 | inactive |
| Dyrk2 (Dual-specificity tyrosine phosphorylation-regulated kinase 2) | 1 | 78934 | 3708 | inactive |
| CG14285 | 1 | 1.57e5 | 8670 | inactive |
| CG2225 | 1 | 91991 | 4236 | inactive |
| CG2225 | 2 | 92466 | 4435 | inactive |
| cactin | 1 | 95172 | 6104 | inactive |
| CG11498 | 1 | 93915 | 5079 | inactive |
| CG14829 | 1 | 1.02e5 | 4161 | inactive |
| Mos (Mos oncogene) | 1 | 93348 | 4105 | inactive |
| CG10748 | 1 | 1.34e5 | 7388 | inactive |

Look-ups from the list.
Mos (Mos oncogene), activity call → inactive
CG11696, Renilla normaliser, rep 1 → 716
CG31678 #1, activity call = inactive
Result of Kr (Kruppel) in “activity call”: inactive
CG42568 + DnaJ-60 #1, Renilla normaliser, rep 1: 4750
Entry of CG31678 #2 in “activity call”: inactive

Additional records follow:
| target | dsRNA no. | E2F firefly, rep 1 | Renilla normaliser, rep 1 | activity call |
| --- | --- | --- | --- | --- |
| CG17744 | 1 | 88093 | 3582 | inactive |
| CG15753 (retired record) | 1 | 46811 | 3611 | inactive |
| RpL10Ab (Ribosomal protein L10Ab) | 1 | 56603 | 6180 | inactive |
| CG32486 | 1 | 73221 | 3666 | inactive |
| CG32486 | 2 | 1.02e5 | 3922 | inactive |
| CG12194 | 1 | 1.47e5 | 5733 | inactive |
| CG30373 | 1 | 1.27e5 | 5569 | inactive |
| CG7377 | 1 | 1.13e5 | 6216 | inactive |
| CycY (Cyclin Y) | 1 | 75440 | 3936 | inactive |
| CG13594 | 1 | 1.12e5 | 4328 | inactive |
| CG17803 | 1 | 1.40e5 | 7192 | inactive |
| Rcd-1 (Required for cell differentiation 1) | 1 | 1.21e5 | 6618 | inactive |
| CG13693 | 1 | 1.57e5 | 5750 | inactive |
| haf (hattifattener) | 1 | 1.73e5 | 5908 | inactive |
| CG12589 | 1 | 1.11e5 | 4949 | inactive |
| CG32281 | 1 | 72545 | 3586 | inactive |
| Obp57e (Odorant-binding protein 57e) | 1 | 1.84e5 | 5727 | inactive |
| CG1638 | 1 | 64132 | 4772 | inactive |
| Archease | 1 | 1.50e5 | 8351 | inactive |
| salt (salty dog) | 1 | 2083 | 1308 | inactive |
| aralar1 | 1 | 86375 | 2725 | inactive |
| aralar1 | 2 | 1682 | 992 | inactive |
| CG17739 | 1 | 3137 | 217 | inactive |
| flip (flippy) | 1 | 1.44e5 | 6821 | inactive |
| Octalpha2R (alpha2-adrenergic-like octopamine receptor) | 1 | 77657 | 2406 | inactive |
| Octalpha2R (alpha2-adrenergic-like octopamine receptor) | 2 | 1.08e5 | 5857 | inactive |
| l(1)G0004 (lethal (1) G0004) | 1 | 1.38e5 | 5619 | inactive |
| hyx (hyrax) | 1 | 56984 | 3328 | inactive |
| SLC5A11 (Sodium/solute co-transporter-like 5A11) | 1 | 90843 | 3977 | inactive |
| CG1698 | 1 | 2891 | 179 | inactive |
| CG1418 | 1 | 1.53e5 | 5266 | inactive |
| CG17186 | 1 | 1.29e5 | 7029 | inactive |
| CG13021 | 1 | 58981 | 3808 | inactive |
| agt (O-6-alkylguanine-DNA alkyltransferase) | 1 | 1.43e5 | 6983 | inactive |
| CG32755 | 1 | 98145 | 5340 | inactive |
| Efa6 (Exchange factor for Arf 6) | 1 | 81173 | 2176 | inactive |
| Efa6 (Exchange factor for Arf 6) | 2 | 74984 | 4745 | inactive |
| Efa6 (Exchange factor for Arf 6) | 3 | 78962 | 6394 | inactive |
| CG34112 | 1 | 1.42e5 | 7082 | inactive |
| CG17110 | 1 | 1.12e5 | 5669 | inactive |
| CG17760 | 1 | 1.04e5 | 4070 | inactive |
| CG18231 | 1 | 1.50e5 | 7516 | inactive |
| CCHa1 (CCHamide-1) | 1 | 1.09e5 | 10112 | inactive |
| CG30058 + CG34235 + CG34312 | 1 | 1.44e5 | 4835 | inactive |
| mRpL12 (mitochondrial ribosomal protein L12) | 1 | 73274 | 3506 | inactive |
| CG5681 | 1 | 1.01e5 | 4715 | inactive |
| hng3 (hinge3) | 1 | 97209 | 4057 | inactive |
| CG6470 | 1 | 1.42e5 | 5211 | inactive |
| CG12684 | 1 | 1.07e5 | 5601 | inactive |
| CG30089 | 1 | 66886 | 3071 | inactive |
| CG30089 | 2 | 87624 | 3570 | inactive |
| CG30089 | 3 | 88480 | 3663 | inactive |
| CG30089 | 4 | 52580 | 4447 | inactive |
| CG4752 | 1 | 98292 | 4139 | inactive |
